Experimental data: PubChem BioAssay AID1508588 (Peter MacCallum Cancer Centre, 2020)
Screen: 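Genome-wide search for knock-downs that heighten vemurafenib action in melanoma cells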 (primary screen). System: human WM266.4 melanoma cells (BRAF V600 mutant). Reagent: siRNA pool against human genes, 40 nM. Time to read-out: 96 h from transfection to read-out. Challenge: vemurafenib 300 nM (about IC25), added 48 h after transfection, for 48 h; comparison arm got DMSO vehicle only. Measurement: 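Ratios to non-targeting siRNA for cell gain, counted as DAPI nuclei after minus before drug and averaged over two replicates, and for absorbance-read medium lactate per cell; both binned into fold-change classes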. Direction: cell gain with vemurafenib: higher = more cell gain than with non-targeting siRNA; lactate per cell with vemurafenib: higher = more lactate made per cell. Active means: 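a knock-down counts as enhancing when its fold-change classes with vehicle and with vemurafenib, taken together, show a stronger drug effect on cell gain or lactate per cell; exact class pairs not stated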. Calls: active = enhances vemurafenib effect; inactive = no enhancement seen.
The whole screen tested about 18,000 reagents; this is a part drawn at random. Over the whole deposit, 790 (4.4%) got an active call. 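Calls rest on a combination of fold-change classes in drug and vehicle arms, not all shown here.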 A number with no mark means an inactive call. A reagent listed more than once was tested more than once; the source does not tell the runs apart.

Gene	cell gain with vemurafenib	lactate per cell with vemurafenib
STXBP2 (syntaxin binding protein 2)	0.76	1.12
SHOX2 (SHOX homeobox 2)	0.64	0.59
EFNA1 (ephrin A1)	0.96	0.57
ZDHHC23 (zDHHC palmitoyltransferase 23)	0.25	1.92
SFTPB (surfactant protein B)	0.65	0.64
NBPF15 (NBPF member 15)	0.33	1.54
SLC30A5	0.68	0.74
VILL (villin like)	-0.18	1.47
ZNF629 (zinc finger protein 629)	1.06	0.73
ZNF425 (zinc finger protein 425)	0.05	2.48
NDRG4 (NDRG family member 4)	0.17	2.67
CD300A (CD300a molecule)	0.73	0.72
CCDC126 (coiled-coil domain containing 126)	0.48	1.71
JARID2 (jumonji and AT-rich interaction domain containing 2)	0.57	0.37
FGFBP1 (fibroblast growth factor binding protein 1)	0.26	2.17
CTSW (cathepsin W)	0.52	0.92
CT45A1 (cancer/testis antigen family 45 member A1)	0.46	1.06
AKAP6 (A-kinase anchoring protein 6)	0.2	1.15
CDK20 (cyclin dependent kinase 20)	0.72	0.66
IFI6 (interferon alpha inducible protein 6)	0.42	1.19
IPO13 (importin 13)	0.35	1.54
MRPS30 (mitochondrial ribosomal protein S30)	1.43	0.33
STK40 (serine/threonine kinase 40)	0.55	1.46
STK40 (serine/threonine kinase 40)	0.56	1.38
OXCT1 (3-oxoacid CoA-transferase 1)	1.15	0.74
ISLR2 (immunoglobulin superfamily containing leucine rich repeat 2)	0.66	0.58

Next part, starting with the last 2 of the part before.
Gene	cell gain with vemurafenib	lactate per cell with vemurafenib
OXCT1 (3-oxoacid CoA-transferase 1)	1.15	0.74
ISLR2 (immunoglobulin superfamily containing leucine rich repeat 2)	0.66	0.58
ALDH7A1 (aldehyde dehydrogenase 7 family member A1)	0.42	1.25
ADCY6 (adenylate cyclase 6)	0.48	1.42
CRTAM (cytotoxic and regulatory T cell molecule)	1.02 (active)	0.08
ENO1 (enolase 1)	0.66	0.82
GPER1 (G protein-coupled estrogen receptor 1)	0.56	1.81
OR2M3 (olfactory receptor family 2 subfamily M member 3)	0.03	0.72
SCARB1 (scavenger receptor class B member 1)	0.74	0.61
TMEM207 (transmembrane protein 207)	0.68	0.84
TRAPPC3 (trafficking protein particle complex subunit 3)	0.47	0.61
ARHGEF35 (Rho guanine nucleotide exchange factor 35)	0.4	0.52
RGMA (repulsive guidance molecule BMP co-receptor a)	0.41	0.32
TNFSF12-TNFSF13 (TNFSF12-TNFSF13 readthrough)	1.31	0.45
NFKBIA (NFKB inhibitor alpha)	0.37	0.86
IL1R1 (interleukin 1 receptor type 1)	0.38	0.76
GSKIP (GSK3B interacting protein)	-0.08	1.91
NOAZFP (nucleolar atypical zinc finger)	0.99	0.88
OR5AU1 (olfactory receptor family 5 subfamily AU member 1)	0.36	2.36
GOLGA4 (golgin A4)	0.81	0.67
PHF8 (PHD finger protein 8)	0.4	2.05
SPPL2C (signal peptide peptidase like 2C)	0.52	1.34
FGL1 (fibrinogen like 1)	1.08	0.74
ATP10D (ATPase phospholipid transporting 10D (putative))	0.63	0.96
IL2RB (interleukin 2 receptor subunit beta)	0	3.64
N4BP2L1 (NEDD4 binding protein 2 like 1)	0.88	0.8
PRSS45P (serine protease 45, pseudogene)	1.1	0.77
CFAP210 (cilia and flagella associated protein 210)	1.03	1.13
RESF1 (retroelement silencing factor 1)	1	0.89
ZFR (zinc finger RNA binding protein)	0.44	1.02
WFDC2 (WAP four-disulfide core domain 2)	1	1.18
RPL37 (ribosomal protein L37)	-0.01	0.98
RNF135 (ring finger protein 135)	1.03	0.85
